The values below come from PMC7334785.

Protein sequences, listed by entry. Tags and fused reporters are not part of them. Residues count along the entry.
UniProt P46940: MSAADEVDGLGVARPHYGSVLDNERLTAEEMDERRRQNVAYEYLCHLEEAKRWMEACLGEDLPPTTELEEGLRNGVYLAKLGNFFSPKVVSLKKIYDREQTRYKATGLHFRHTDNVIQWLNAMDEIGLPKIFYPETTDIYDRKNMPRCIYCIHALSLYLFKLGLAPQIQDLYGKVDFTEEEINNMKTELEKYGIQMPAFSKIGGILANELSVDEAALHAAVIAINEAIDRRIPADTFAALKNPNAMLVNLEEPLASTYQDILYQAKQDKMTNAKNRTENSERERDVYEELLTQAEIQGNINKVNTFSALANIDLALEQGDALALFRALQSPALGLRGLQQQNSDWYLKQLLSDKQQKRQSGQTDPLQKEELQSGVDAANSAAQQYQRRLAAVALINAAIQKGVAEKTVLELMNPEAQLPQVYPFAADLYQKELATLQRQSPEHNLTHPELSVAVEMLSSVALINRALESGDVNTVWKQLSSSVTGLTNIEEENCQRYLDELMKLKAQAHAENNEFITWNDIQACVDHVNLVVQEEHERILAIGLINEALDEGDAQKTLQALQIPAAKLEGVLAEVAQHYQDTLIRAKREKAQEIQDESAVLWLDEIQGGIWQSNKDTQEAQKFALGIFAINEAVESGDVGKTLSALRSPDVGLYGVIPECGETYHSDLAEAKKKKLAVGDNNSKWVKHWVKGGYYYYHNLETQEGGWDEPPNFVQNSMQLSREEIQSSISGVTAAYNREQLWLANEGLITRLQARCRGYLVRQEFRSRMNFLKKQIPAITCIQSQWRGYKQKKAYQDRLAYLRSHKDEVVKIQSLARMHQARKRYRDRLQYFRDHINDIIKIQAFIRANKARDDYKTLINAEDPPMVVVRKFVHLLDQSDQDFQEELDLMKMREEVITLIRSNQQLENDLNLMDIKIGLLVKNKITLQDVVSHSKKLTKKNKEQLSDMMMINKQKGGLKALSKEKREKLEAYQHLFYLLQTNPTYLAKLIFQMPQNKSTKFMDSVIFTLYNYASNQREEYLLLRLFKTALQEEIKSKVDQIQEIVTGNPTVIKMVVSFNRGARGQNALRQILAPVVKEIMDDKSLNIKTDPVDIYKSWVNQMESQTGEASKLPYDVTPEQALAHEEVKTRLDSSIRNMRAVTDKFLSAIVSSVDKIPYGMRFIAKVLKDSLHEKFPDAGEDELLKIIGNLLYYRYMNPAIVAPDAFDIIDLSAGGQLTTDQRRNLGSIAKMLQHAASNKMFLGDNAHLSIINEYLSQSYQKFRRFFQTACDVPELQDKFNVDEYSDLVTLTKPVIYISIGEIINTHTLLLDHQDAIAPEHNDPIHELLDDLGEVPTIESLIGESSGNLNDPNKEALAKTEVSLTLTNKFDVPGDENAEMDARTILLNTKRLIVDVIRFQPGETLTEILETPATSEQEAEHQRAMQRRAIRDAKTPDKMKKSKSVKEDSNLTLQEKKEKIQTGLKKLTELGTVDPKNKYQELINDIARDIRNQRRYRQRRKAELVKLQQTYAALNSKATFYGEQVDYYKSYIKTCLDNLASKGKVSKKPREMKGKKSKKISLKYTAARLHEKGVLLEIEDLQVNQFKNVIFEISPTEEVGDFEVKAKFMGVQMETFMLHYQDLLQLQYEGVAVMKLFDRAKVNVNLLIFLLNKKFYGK
UniProt P11021, residues 19-654: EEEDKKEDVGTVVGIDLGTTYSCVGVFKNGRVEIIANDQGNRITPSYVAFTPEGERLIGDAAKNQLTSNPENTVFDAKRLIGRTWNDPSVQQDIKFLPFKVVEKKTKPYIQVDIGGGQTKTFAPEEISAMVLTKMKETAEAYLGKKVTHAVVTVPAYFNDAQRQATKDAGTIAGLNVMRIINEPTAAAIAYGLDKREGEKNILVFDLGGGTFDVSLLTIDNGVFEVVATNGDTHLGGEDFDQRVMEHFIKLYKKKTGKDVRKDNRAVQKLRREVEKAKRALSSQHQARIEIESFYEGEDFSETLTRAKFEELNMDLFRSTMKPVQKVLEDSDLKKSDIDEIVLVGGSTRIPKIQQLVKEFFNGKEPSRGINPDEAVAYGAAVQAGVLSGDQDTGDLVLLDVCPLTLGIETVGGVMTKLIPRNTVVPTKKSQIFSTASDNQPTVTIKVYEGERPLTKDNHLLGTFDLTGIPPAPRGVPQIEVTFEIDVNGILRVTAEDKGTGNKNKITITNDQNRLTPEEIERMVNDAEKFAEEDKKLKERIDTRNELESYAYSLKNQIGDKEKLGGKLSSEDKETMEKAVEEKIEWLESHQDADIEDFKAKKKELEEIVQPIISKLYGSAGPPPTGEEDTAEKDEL
UniProt P52732: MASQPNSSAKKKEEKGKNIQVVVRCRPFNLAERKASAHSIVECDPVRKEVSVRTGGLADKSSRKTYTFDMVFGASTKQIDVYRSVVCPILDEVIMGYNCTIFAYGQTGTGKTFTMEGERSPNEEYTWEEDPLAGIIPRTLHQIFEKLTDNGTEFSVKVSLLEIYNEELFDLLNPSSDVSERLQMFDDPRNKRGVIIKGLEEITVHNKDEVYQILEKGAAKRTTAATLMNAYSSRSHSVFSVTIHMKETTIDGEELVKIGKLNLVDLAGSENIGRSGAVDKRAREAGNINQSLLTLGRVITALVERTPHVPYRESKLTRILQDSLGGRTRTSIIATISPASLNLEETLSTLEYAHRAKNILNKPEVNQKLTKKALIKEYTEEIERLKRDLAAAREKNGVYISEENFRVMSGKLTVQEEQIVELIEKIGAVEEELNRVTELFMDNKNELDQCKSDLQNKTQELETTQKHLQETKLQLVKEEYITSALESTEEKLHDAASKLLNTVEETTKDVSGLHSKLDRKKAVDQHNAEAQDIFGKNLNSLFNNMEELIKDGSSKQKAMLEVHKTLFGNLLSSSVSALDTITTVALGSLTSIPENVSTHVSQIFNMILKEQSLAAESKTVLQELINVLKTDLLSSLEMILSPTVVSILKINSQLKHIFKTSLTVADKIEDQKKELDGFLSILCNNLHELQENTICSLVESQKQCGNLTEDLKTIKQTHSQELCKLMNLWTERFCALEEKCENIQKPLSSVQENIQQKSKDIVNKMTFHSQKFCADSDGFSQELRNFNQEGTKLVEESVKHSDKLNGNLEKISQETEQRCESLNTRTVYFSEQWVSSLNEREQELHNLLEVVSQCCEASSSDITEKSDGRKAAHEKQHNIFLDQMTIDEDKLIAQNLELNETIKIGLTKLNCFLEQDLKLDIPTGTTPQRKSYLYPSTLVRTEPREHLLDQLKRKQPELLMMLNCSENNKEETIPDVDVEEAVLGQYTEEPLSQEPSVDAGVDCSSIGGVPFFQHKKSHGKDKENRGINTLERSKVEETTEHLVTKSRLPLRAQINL

For experiment [1], the target named is T1, Flag-HA-tagged Borealin (UniProt Q53HL2).
T1 sequence: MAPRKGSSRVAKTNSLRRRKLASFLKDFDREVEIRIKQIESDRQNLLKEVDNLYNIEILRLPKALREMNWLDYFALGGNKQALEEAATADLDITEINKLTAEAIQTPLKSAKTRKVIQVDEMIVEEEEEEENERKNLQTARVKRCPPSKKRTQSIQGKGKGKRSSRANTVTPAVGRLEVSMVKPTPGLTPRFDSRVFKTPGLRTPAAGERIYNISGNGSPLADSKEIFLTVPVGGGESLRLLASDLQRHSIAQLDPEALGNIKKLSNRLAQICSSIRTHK
Description: affinity purification with mass spectrometry; tandem affinity purification (anti-Flag M2 agarose, then anti-HA agarose, peptide elution) of Flag-HA-Borealin from stable HeLa cells synchronised to cytokinesis by double-thymidine block; BC100 buffer (20 mM Tris-Cl pH 7.5, 20% glycerol, 100 mM NaCl, 0.2 mM EDTA) with 0.1% Triton X-100; SDS-PAGE, gel strips sequenced by mass spectrometry.

Experiment [2] concerns the target T2, Flag-HA-tagged Borealin, Q53HL2.
T2 chain: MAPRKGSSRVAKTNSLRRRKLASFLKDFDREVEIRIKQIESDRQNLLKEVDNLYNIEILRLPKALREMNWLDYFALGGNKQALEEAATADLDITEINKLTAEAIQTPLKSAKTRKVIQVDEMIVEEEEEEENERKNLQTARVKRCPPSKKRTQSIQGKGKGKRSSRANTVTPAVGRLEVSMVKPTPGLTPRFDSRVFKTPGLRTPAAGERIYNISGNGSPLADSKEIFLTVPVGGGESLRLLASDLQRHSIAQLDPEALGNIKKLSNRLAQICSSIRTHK
The experiment is described as above. Particulars: remark: other sources report otherwise.

These are yes or no findings as the source states them, for the method shown. Binding seen in cells or lysates may run through a third protein. Here binding means that the protein was enriched with, or labelled near, the bait; the list need not be complete. Sequences can lack the tags named with a protein.

Regarding “IQ domain-containing GTPase-activating protein 1 (from UniProt P46940 1-1657)”, the binding result in experiment [1] is “binds”.
For ATBP (human (endogenous in HeLa)), the binding result in experiment [1] is given as “binds”.
The same measure, in the same setting: with GRP78 (from UniProt P11021 19-654) the entry was “binds”; with KIF11 (from UniProt P52732 1-1056), “binds”.

B1: Aurora B, Q96GD4 1-344 (protein)
chain: MAQKENSYPWPYGRQTAPSGLSTLPQRVLRKEPVTPSALVLMSRSNVQPTAAPGQKVMENSSGTPDILTRHFTIDDFEIGRPLGKGKFGNVYLAREKKSHFIVALKVLFKSQIEKEGVEHQLRREIEIQAHLHHPNILRLYNYFYDRRRIYLILEYAPRGELYKELQKSCTFDEQRTATIMEELADALMYCHGKKVIHRDIKPENLLLGLKGELKIADFGWSVHAPSLRRKTMCGTLDYLPPEMIEGRMHNEKVDLWCIGVLCYELLVGNPPFESASHNETYRRIVKVDLKFPASVPMGAQDLISKLLRHNPSERLPLAQVSAHPWVRANSRRVLPPSALQSVA
Consider B1, for which the binding entry in experiment [2] is reported as “binds”.
